Assay results reported in paper PMC9629621.
These are yes or no findings as the source states them, for the method shown. Binding seen in cells or lysates may run through a third protein. Some entries that bind do so weakly or less than the wild type.

Sequences of proteins named here, by UniProt entry; tags and fusion partners are left off.
UniProt P10591: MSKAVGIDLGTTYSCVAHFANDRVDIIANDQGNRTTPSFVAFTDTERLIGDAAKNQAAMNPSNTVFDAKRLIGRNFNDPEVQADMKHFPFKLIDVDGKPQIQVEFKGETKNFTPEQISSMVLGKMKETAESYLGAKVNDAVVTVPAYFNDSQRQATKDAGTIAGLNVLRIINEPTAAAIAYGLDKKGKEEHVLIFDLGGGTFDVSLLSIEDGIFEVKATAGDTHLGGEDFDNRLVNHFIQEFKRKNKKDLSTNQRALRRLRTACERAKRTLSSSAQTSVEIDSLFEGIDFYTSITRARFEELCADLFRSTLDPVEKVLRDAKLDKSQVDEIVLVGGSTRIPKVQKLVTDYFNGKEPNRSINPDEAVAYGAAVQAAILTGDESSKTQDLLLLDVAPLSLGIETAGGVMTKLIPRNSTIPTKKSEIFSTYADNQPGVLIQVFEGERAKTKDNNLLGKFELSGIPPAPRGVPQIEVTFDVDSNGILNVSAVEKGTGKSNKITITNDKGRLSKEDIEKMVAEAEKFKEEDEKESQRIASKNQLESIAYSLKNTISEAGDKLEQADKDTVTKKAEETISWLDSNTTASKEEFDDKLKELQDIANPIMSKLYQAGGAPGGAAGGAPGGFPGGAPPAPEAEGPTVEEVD

Target: T1, Pim1 S974A (S. cerevisiae) (UniProt P36775)
T1 sequence: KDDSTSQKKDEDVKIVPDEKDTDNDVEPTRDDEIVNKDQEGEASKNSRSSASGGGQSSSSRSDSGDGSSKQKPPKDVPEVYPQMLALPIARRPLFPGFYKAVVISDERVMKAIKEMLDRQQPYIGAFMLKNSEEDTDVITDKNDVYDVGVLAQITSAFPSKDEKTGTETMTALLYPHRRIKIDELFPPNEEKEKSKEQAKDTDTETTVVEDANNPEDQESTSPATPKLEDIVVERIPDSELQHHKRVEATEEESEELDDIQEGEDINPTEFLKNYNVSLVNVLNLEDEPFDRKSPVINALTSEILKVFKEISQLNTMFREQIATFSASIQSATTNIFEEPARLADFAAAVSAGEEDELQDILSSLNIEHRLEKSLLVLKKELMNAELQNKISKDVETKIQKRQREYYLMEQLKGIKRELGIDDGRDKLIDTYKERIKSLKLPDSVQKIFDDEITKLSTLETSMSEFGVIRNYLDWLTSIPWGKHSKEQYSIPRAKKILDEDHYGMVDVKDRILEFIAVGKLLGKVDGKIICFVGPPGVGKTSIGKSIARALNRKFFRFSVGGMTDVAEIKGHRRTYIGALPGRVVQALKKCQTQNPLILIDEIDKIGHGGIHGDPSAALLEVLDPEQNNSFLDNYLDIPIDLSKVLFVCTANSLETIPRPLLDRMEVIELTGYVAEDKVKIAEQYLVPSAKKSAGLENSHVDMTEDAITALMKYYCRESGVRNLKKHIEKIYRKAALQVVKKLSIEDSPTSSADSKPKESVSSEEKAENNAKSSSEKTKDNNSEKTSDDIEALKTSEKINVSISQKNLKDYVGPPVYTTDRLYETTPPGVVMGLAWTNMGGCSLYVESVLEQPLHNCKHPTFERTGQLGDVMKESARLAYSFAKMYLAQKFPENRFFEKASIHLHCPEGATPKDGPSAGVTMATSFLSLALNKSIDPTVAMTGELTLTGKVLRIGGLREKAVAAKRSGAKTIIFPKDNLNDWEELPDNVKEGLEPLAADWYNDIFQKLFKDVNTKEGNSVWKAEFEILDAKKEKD
Test: co-IP; yeast extract (200 ug) on anti-GFP magnetic beads (GFP-TRAP), 4°C overnight; 50 mM Na-phosphate pH 8.0, 300 mM NaCl, 0.01% Tween-20; western blot

binding: binds
Substance: Ssa1 (endogenous, detected with anti-Ssa1) (from UniProt P10591 1-642)
